Test results taken from the supplement of paper PMC10727501.
This is one part of the list. Repeats in this data set agree poorly, so a single value says little.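 Free-swimming zebrafish larvae were assessed for O-bend response probability to dark flashes (naive: first five; training: remaining flashes across four 60-flash blocks; test: later 60-flash block) and for OMR turning toward alternating leftward/rightward LED motion. Six treated larvae were compared against sixty 0.1% DMSO controls; hits required |SSMD|≥2.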

Tests used:
Conditions in all cases: 10 µM; pre-incubation: 30-90 min
[1] = test system: Danio rerio larvae (5 dpf, TLF); test: OMR-Perf (SSMD vs DMSO vehicle); higher = higher than vehicle (e.g. higher dark-flash O-bend response probability, or better optomotor performance)
[2] = test system: Danio rerio larvae (5 dpf, TLF); test: Prob-Test (SSMD vs DMSO vehicle); higher = higher than vehicle (e.g. higher dark-flash O-bend response probability, or better optomotor performance)
[3] = test system: Danio rerio larvae (5 dpf, TLF); test: Prob-Naive (SSMD vs DMSO vehicle); higher = higher than vehicle (e.g. higher dark-flash O-bend response probability, or better optomotor performance)
[4] = test system: Danio rerio larvae (5 dpf, TLF); test: Prob-Train (SSMD vs DMSO vehicle); higher = higher than vehicle (e.g. higher dark-flash O-bend response probability, or better optomotor performance)

Row | SMILES | OMR-Perf [1] | Prob-Test [2] | Prob-Naive [3] | Prob-Train [4]
1 | O=c1cc(-c2ccccc2)oc2cc(O)cc(O)c12 [Chrysin] | 0.24 | -0.807 | -0.399 | -0.294
2 | CCN1CCCC1CNC(=O)c1cc(S(=O)(=O)CC)c(N)cc1OC (stereo not given) [Amisulpride] | -0.00364 | 0.351 | 0.129 | 0.647
3 | CC(C)NCC(O)c1cc(O)cc(O)c1.CC(C)NCC(O)c1cc(O)cc(O)c1.O=S(=O)(O)O (stereo not given) [Metaproterenol Sulfate] | -0.33 | -0.0368 | 0.0912 | 0.424
4 | CC[C@@H]1C(=O)OC[C@@H]1Cc1cncn1C.Cl [Pilocarpine HCl] | 0.583 | -0.216 | 0.448 | -0.371
5 | CCc1cc2c(cc1CC)CC(NC[C@H](O)c1ccc(O)c3[nH]c(=O)ccc13)C2.O=C(O)/C=C/C(=O)O [Indacaterol Maleate] | -0.073 | 0.79 | 0.391 | 0.556
6 | O=C(CS(=O)Cc1ccco1)NC/C=C\COc1cc(CN2CCCCC2)ccn1 (stereo not given) [Lafutidine] | -0.389 | -0.451 | -0.5 | -0.56
7 | CNC(=O)c1ccccc1Sc1ccc2c(/C=C/c3ccccn3)n[nH]c2c1 [Axitinib] | -0.16 | -0.325 | -0.34 | -0.446
8 | CCC[C@H](NC(=O)[C@H]1[C@H]2CCC[C@H]2CN1C(=O)[C@@H](NC(=O)[C@@H](NC(=O)c1cnccn1)C1CCCCC1)C(C)(C)C)C(=O)C(=O)NC1CC1 [Telaprevir (VX-950)] | 0.422 | 0.0338 | 0.176 | 0.22
9 | CCOC(=O)[C@H](CCc1ccccc1)N[C@@H](C)C(=O)N1[C@@H](C(=O)O)C[C@@H]2CCC[C@@H]21 [Ramipril] | 0.173 | 0.527 | 0.147 | 0.251
10 | CN(Cc1cnc2nc(N)nc(N)c2n1)c1ccc(C(=O)N[C@@H](CCC(=O)O)C(=O)O)cc1 [Methotrexate] | -0.958 | -1.24 | 0.214 | -1.1
11 | CC1(C)S[C@H]2[C@H](NC(=O)[C@H](N)c3ccccc3)C(=O)N2[C@H]1C(=O)O.O.O.O [Ampicillin Trihydrate] | -0.183 | 0.314 | -0.115 | 0.154
12 | O=C(O)[C@@H]1O[C@H](Oc2cc3oc(-c4ccccc4)cc(=O)c3c(O)c2O)[C@H](O)[C@@H](O)[C@@H]1O [Baicalin] | 0.154 | -0.353 | 0.285 | 0.245
13 | Cl.NC(CO)C(=O)NNCc1ccc(O)c(O)c1O (stereo not given) [Benserazide HCl] | 0.103 | -0.000764 | -0.226 | -0.0263
14 | CCOC(=O)C1=C(COCCN)NC(C)=C(C(=O)OC)C1c1ccccc1Cl (stereo not given) [Amlodipine] | 0.485 | 0.0955 | 0.0551 | 0.334
15 | CN(C)CCCN1c2ccccc2Sc2ccc(Cl)cc21.Cl [Chlorpromazine HCl] | -0.467 | -1.76 | -0.949 | -1.38
16 | O=C(CCCN1CCC(O)(c2ccc(Cl)cc2)CC1)c1ccc(F)cc1 [Haloperidol] | -0.725 | -1.37 | 0.375 | 0.19
17 | CC1(C)[C@@H](C(=O)[O-])N2C(=O)C[C@H]2S1(=O)=O.[Na+] [Sulbactam sodium] | 0.169 | -0.164 | -0.55 | -0.633
18 | C[C@]12C=CC(=O)C=C1CC[C@@H]1[C@H]2C(=O)C[C@@]2(C)[C@H]1CC[C@@]2(O)C(=O)CO [Prednisone] | 0.256 | 0.371 | 0.121 | -0.128
19 | CCCN[C@H]1CCc2nc(N)sc2C1 [Pramipexole] | 0.539 | 0.572 | 0.486 | 0.41
20 | O=C(O)[C@H](Cc1c[nH]c2ccccc12)N1C(=O)c2ccccc2C1=O | 0.125 | -0.379 | 0.146 | -0.632
21 | O=C(/C=C\n1cnc(-c2cc(C(F)(F)F)cc(C(F)(F)F)c2)n1)N1CC(F)(F)C1 | -0.394 | -0.0814 | -0.785 | -0.735
22 | NS(=O)(=O)C#Cc1ccccc1 [Pifithrin-Î± (PFTÎ±)] | -0.566 | -1.39 | -1.98 | -2.33
23 | CCCCCN(C)CCC(O)(P(=O)(O)O)P(=O)(O)O.O.[Na] [Ibandronate sodium] | -0.29 | -0.00639 | 0.13 | -0.182

Single records, from the list above. Order of values: OMR-Perf [1]	Prob-Test [2]	Prob-Naive [3]	Prob-Train [4]
O=c1cc(-c2ccccc2)oc2cc(O)cc(O)c12 [Chrysin] in the list: 0.24	-0.807	-0.399	-0.294
CN(C)CCCN1c2ccccc2Sc2ccc(Cl)cc21.Cl [Chlorpromazine HCl] in the list: -0.467	-1.76	-0.949	-1.38

Later entries:

Row | SMILES | OMR-Perf [1] | Prob-Test [2] | Prob-Naive [3] | Prob-Train [4]
24 | C=CCc1cccc(/C=N/NC(=O)CN2CCN(Cc3ccccc3)CC2)c1O | -0.382 | 0.164 | -0.273 | 0.0395
25 | CNCCc1ccccn1.Cl.Cl [Betahistine 2HCl] | -0.123 | -0.321 | 0.651 | -0.0229
26 | O=C(NOCC1CC1)c1ccc(F)c(F)c1Nc1ccc(I)cc1Cl | -0.925 | -1.91 | -0.71 | -2.96
27 | CCCCC(=O)O[C@@H]1CC[C@H]2[C@@H]3CCc4cc(O)ccc4[C@@H]3CC[C@]12C [Estradiol valerate] | -0.489 | -0.911 | -0.134 | -2.03
28 | CCO.C[C@H]1c2cccc(O)c2C(=O)C2=C(O)[C@]3(O)C(=O)C(C(N)=O)=C(O)[C@@H](N(C)C)[C@@H]3[C@@H](O)[C@@H]21.C[C@H]1c2cccc(O)c2C(=O)C2=C(O)[C@]3(O)C(=O)C(C(N)=O)=C(O)[C@@H](N(C)C)[C@@H]3[C@@H](O)[C@@H]21.Cl.Cl.O [Doxycycline Hyclate] | -0.0143 | 0.342 | -0.0234 | 0.101
29 | Cn1cnc(N)c2ncnc1-2 [3-Methyladenine] | 0.183 | -0.0174 | 0.145 | 0.249
30 | C[C@H](Cc1cc2c(c(C(N)=O)c1)N(CCCO)CC2)NCCOc1ccccc1OCC(F)(F)F [Silodosin] | -0.288 | -0.106 | 0.227 | 0.0881
31 | Cn1cc[nH]c1=S [Methimazole] | -0.534 | -0.147 | 0.0533 | -0.324
32 | COc1ccc(CNCc2cccc3ccccc23)cc1.Cl | -0.00791 | -0.832 | 0.42 | 0.0391
33 | O=C(/C=C\n1cnc(-c2cc(C(F)(F)F)cc(C(F)(F)F)c2)n1)NNc1cnccn1 | -0.671 | 1.17 | 0.0343 | 0.796
34 | Cn1nc(C(C)(C)C)cc1C(=O)N[C@@H](Cc1cccc(Cl)c1)C(=O)NCC#N [Cathepsin Inhibitor 1] | -0.242 | 0.203 | 0.176 | 0.0222
35 | CS(=O)(=O)c1ccc(C(=O)Nc2ccc(Cl)c(-c3ccccn3)c2)c(Cl)c1 [Vismodegib (GDC-0449)] | -0.513 | -0.0835 | 0.153 | -0.145
36 | CC(C)(C)c1nc(-c2cccc(NS(=O)(=O)c3c(F)cccc3F)c2F)c(-c2ccnc(N)n2)s1 | 0.258 | 0.407 | 0.319 | 0.273
37 | O=c1oc2c(O)c(O)cc3c(=O)oc4c(O)c(O)cc1c4c23 [Ellagic acid] | -0.689 | -0.86 | 0.134 | -0.443
38 | CCCCN1CCCCC1C(=O)Nc1c(C)cccc1C.Cl (stereo not given) [Bupivacaine HCl] | 0.0799 | -0.211 | 0.028 | -0.41
39 | CC(=O)O[C@H]1C(=O)[C@@]2(C)C([C@H](OC(=O)c3ccccc3)[C@]3(O)C[C@H](OC(=O)[C@H](O)[C@@H](NC(=O)c4ccccc4)c4ccccc4)C(C)=C1C3(C)C)[C@]1(OC(C)=O)CO[C@@H]1C[C@H]2O (stereo not given in full) [Paclitaxel] | 0.144 | -0.323 | -0.15 | 0.104
40 | C=CC(=O)Nc1ccc2ncnc(Nc3ccc(OCc4cccc(F)c4)c(Cl)c3)c2c1.Cc1ccc(S(=O)(=O)O)cc1 | 0.192 | -0.164 | -0.13 | -0.252
41 | CNC[C@H](O)c1cccc(O)c1.Cl [Phenylephrine HCl] | -0.3 | -0.0469 | 0.028 | 0.0121
42 | COc1ccccc1OCC(O)COC(N)=O (stereo not given) [Methocarbamol] | 0.014 | -0.588 | -0.112 | -0.0977
43 | Cc1cc(F)c(Nc2ncnc3cc(OCc4ccccc4)ccc23)cc1O.Cl | -0.0707 | -0.0421 | 0.0457 | -0.0889
44 | Nc1cc(C(F)(F)F)c(-c2cc(N3CCOCC3)nc(N3CCOCC3)n2)cn1 [BKM120 (NVP-BKM120, Buparlisib)] | -0.75 | -1.03 | 0.0122 | -0.243
45 | CN(CCOc1ccc(CC2SC(=O)NC2=O)cc1)c1ccccn1.Cl (stereo not given) [Rosiglitazone HCl] | 0.603 | -1.63 | 0.507 | -1.62
